# In PMC11274643, “Design, Synthesis, Characterization, and Cytotoxicity of New Pyrazolylmethylene-2-thioxoimidazolidin-4-one Derivatives towards Androgen-Sensitive LNCaP Prostate Cancer Cells” (Biomolecules, 2024):
# Legend:
# [1] = test system: AR-PC-3 androgen-insensitive human prostate cancer cell line; test: MTT cytotoxicity assay in presence of 1 nM DHT, 48 h incubation; format: cell-based
# Protocol: (§1) The antitumor properties of pyrazolylmethylene-2-thioxoimidazolidin-4-one derivatives (3a–p) against androgen-sensitive (AR^+LNCaP; ATCC CRL-1740, Accession: CVCL_0395) and androgen-insensitive (AR^-PC-3; ATCC CRL-1435, Accession: CVCL_D5ZS) human prostate cancer cell lines in addition to normal human lung fibroblast cell line (Wi38, Accession: CVCL_2759) were evaluated by MTT assay. AR^+LNCaP, AR^-PC-3, and Wi38 cell lines were purchased frozen in liquid nitrogen from Egyptian Company for Production of Vaccines, Sera and Drugs, Cairo, Egypt (VACSERA). Tumor cell lines were stored as monolayer cultures in DMEM supplemented with 10% FBS and 1% penicillin–streptomycin. MTT assay was carried out as described previously in the literature. In brief, AR^+LNCaP, AR^-PC-3, and Wi38 cells were cultured into 96-well plates containing 100 µL of culture medium per each well. […] A control containing only culture medium was also applied. The assay was performed in triplicate. The cells were incubated overnight to grow at 37 °C in 5% CO2. […] Absorbance at 550 nm was measured. The formula (Reading of extract/Reading of negative control) × 100 was applied to calculate the viability percentage. The IC50 value of test compounds (3a–p) was also determined using CPE measurements of normal Wi38 cells (normal human lung fibroblast cells). […]
# [2] = test system: Wi38 normal human lung fibroblast cell line; test: as above; format: cell-based; conditions: WI-38, read-out: IC50 Wi38
# Protocol: as §1
# AR+LNCaP cells = test: DNA content at cell cycle stages (Propidium Iodide flow cytometry); format: cell-based, human; conditions: IC50 concentration, 1 nM DHT
# Protocol: The amount of DNA contents of AR^+LNCaP cells stimulated with 1 nM DHT and treated with representative test compounds 3i and 3k at the different stages of the cell cycle were quantitatively evaluated as described previously. Untreated AR^+LNCaP and Enzalutamide-treated AR^+LNCaP were used as negative and positive controls, respectively. The Ab139418–Propidium Iodide Flow Cytometry Kit for Cell Cycle Analysis (ab139418, Abcam, Cambridge, UK) was employed for this assay following the procedures provided by the supplier.
# The synthesized compounds 3i and 3k, that induced higher production of Caspase 3 in AR^+LNCaP cells (Figure 4), were further analyzed. […] The IC50 concentrations of the test compounds were applied in the presence of 1 nM DHT. Firstly, the ab139418-Propidium Iodide Flow Cytometry Kit for Cell Cycle Analysis (Bio vision, Boston, MA, USA) was used to quantify DNA contents at each cell cycle stage as an indicator of the cell cycle growth arrest.
# [3] = test system: AR-PC-3 androgen-insensitive human prostate cancer cell line; test: MTT in vitro cytotoxicity assay, 24 h incubation; format: cell-based
# Protocol: (§2) The antitumor properties of pyrazolylmethylene-2-thioxoimidazolidin-4-one derivatives (3a–p) against androgen-sensitive (AR^+LNCaP; ATCC CRL-1740, Accession: CVCL_0395) and androgen-insensitive (AR^-PC-3; ATCC CRL-1435, Accession: CVCL_D5ZS) human prostate cancer cell lines in addition to normal human lung fibroblast cell line (Wi38, Accession: CVCL_2759) were evaluated by MTT assay. AR^+LNCaP, AR^-PC-3, and Wi38 cell lines were purchased frozen in liquid nitrogen from Egyptian Company for Production of Vaccines, Sera and Drugs, Cairo, Egypt (VACSERA). Tumor cell lines were stored as monolayer cultures in DMEM supplemented with 10% FBS and 1% penicillin–streptomycin. MTT assay was carried out as described previously in the literature. In brief, AR^+LNCaP, AR^-PC-3, and Wi38 cells were cultured into 96-well plates containing 100 µL of culture medium per each well. Cells were incubated with dilution series compounds (3a–p) to give a final concentration of 10, 25, 50, 75, 100, 200, 300, 500, 750, and 1000 ug/mL. A control containing only culture medium was also applied. […] Absorbance at 550 nm was measured. The formula (Reading of extract/Reading of negative control) × 100 was applied to calculate the viability percentage. The IC50 value of test compounds (3a–p) was also determined using CPE measurements of normal Wi38 cells (normal human lung fibroblast cells). […]
# [4] = test system: Wi38 normal human lung fibroblast cell line; test: MTT in vitro cytotoxicity assay, 24 h incubation; format: cell-based; conditions: WI-38
# Protocol: as §2
compound,measurement,setting,value
"CNC(=O)c1ccc(N2C(=S)N(c3ccc(C#N)c(C(F)(F)F)c3)C(=O)C2(C)C)cc1F [Enzalutamide, reference compound]",IC50,[1],13.6 ± 0.27 µM
same,CC50,[2],21.5 ± 0.32 µM
same,DNA Content (%) S,AR+LNCaP cells,13.61%
same,IC50,[3],15.3 ± 0.19 µM
same,IC50,[4],27.5 ± 0.36 µM
